Data source: PubChem BioAssay AID504764 (Drosophila RNAi Screening Center, 2011)
Test: 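Genes whose knock-down alters Notch-dependent transcription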 (primary screen). Cells: Drosophila Kc167 cells. Knock-down reagent: long dsRNA against Drosophila genes. Duration: about 5 days (4 days dsRNA, then 24 h after transfection). Conditions: transfection of constitutively active membrane-tethered Notch lacking the extracellular domain, read 24 h later. Measurement: 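Firefly luciferase from an E(spl)m3 reporter with active Notch, plus control-promoter and uninduced reporter wells for normalisation; unnormalised counts, duplicate wells a and b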. Reading the numbers: induced reporter light, run 1, well a and induced reporter light, run 1, well b: higher = more light from the Notch target reporter with active Notch; control promoter light, run 1, well a and control promoter light, run 1, well b: higher = more light from the viral control promoter (cell number, transfection, viability); uninduced reporter light, run 1, well a: higher = more light from the Notch target reporter without active Notch. Call rule: 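Wells with low control signal or poorly matching duplicates excluded; duplicates averaged; per source plate, z beyond ±2 for induced/control log2 ratio or beyond ±1.8 for induced/uninduced marks a hit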. Calls: active = modifier hit (raised or lowered Notch signal); inactive = not a hit.
In all, the deposit lists about 22,000 reagents; below is an unselected part of those with a known target gene and a result. Over the whole deposit, 403 (1.9%) are marked active. 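Unnormalised raw counts per well; ratio z-scores behind the hit calls and whether each hit raises or lowers signal are not deposited.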 A plus sign joins genes that one reagent is predicted to hit. The record does not give: the amount of reagent.

induced reporter light, run 1, well a | induced reporter light, run 1, well b | control promoter light, run 1, well a | control promoter light, run 1, well b | uninduced reporter light, run 1, well a | call | target gene | dsRNA
89665 | 94340 | 1.83e5 | 1.82e5 | 8165 | inactive | AANATL7 | DRSC18616
1.52e5 | 2.13e5 | 2.13e5 | 1.97e5 | 9160 | inactive | Sgf11 | DRSC09987
67870 | 47140 | 75505 | 61010 | 6990 | inactive | CG33552 | DRSC01551
1.44e5 | 1.65e5 | 1.84e5 | 1.66e5 | 12730 | inactive | dnd | DRSC16064
49350 | 46105 | 71950 | 76125 | 4488 | inactive | adp | DRSC06916
1.82e5 | 1.67e5 | 3.31e5 | 3.24e5 | 14410 | inactive | CG15439 | DRSC00453
2.36e5 | 2.25e5 | 1.90e5 | 1.91e5 | 18480 | inactive | CG4250 | DRSC04455
2.50e5 | 2.61e5 | 2.57e5 | 2.80e5 | 19910 | inactive | CG31269 | DRSC15744
1.68e5 | 1.51e5 | 1.68e5 | 1.45e5 | 15830 | inactive | CG3436 | DRSC00605
1.23e5 | 1.09e5 | 1.20e5 | 94660 | 14930 | inactive | Pp1-13C | DRSC20269
1.61e5 | 1.30e5 | 1.78e5 | 1.92e5 | 11510 | inactive | CG3348 | DRSC15480
2.02e5 | 2.05e5 | 2.25e5 | 1.76e5 | 14040 | inactive | CG10183 | DRSC14203
1.04e5 | 1.19e5 | 92355 | 1.07e5 | 7045 | inactive | CG5665 | DRSC11783
73350 | 89600 | 1.20e5 | 1.27e5 | 6325 | inactive | CG31007 | DRSC14029
14225 | 13800 | 17595 | 18655 | 2810 | inactive | MED14 | DRSC08235
43080 | 43185 | 40100 | 33835 | 7345 | inactive | repo | DRSC16369
2.35e5 | 1.90e5 | 2.62e5 | 2.23e5 | 13540 | inactive | CG7691 | DRSC16287
1.46e5 | 1.03e5 | 1.36e5 | 93930 | 10450 | inactive | CG14096 | DRSC10099
49635 | 42240 | 50705 | 55030 | 3420 | inactive | step | DRSC03694
77820 | 61665 | 58595 | 75420 | 3985 | inactive | step | DRSC03699
2.30e5 | 2.10e5 | 1.87e5 | 2.15e5 | 18182 | inactive | CG5439 | DRSC02861
1.69e5 | 1.95e5 | 1.86e5 | 1.71e5 | 10770 | inactive | CG15873 | DRSC04277
1.11e5 | 1.59e5 | 66270 | 81150 | 15620 | inactive | Aldh | DRSC02717
1.16e5 | 1.27e5 | 1.38e5 | 1.38e5 | 8642 | inactive | Bcat | DRSC19756
60740 | 82690 | 79550 | 41360 | 4020 | inactive | CG8132 | DRSC16383
93240 | 97115 | 1.06e5 | 76155 | 8355 | inactive | Or23a | DRSC00767
1.59e5 | 1.46e5 | 1.97e5 | 2.21e5 | 13692 | inactive | grh | DRSC05680
1.14e5 | 1.02e5 | 1.93e5 | 1.31e5 | 8878 | inactive | grh | DRSC05683
74550 | 86420 | 1.64e5 | 1.82e5 | 7000 | inactive | grh | DRSC07624
1.13e5 | 1.15e5 | 96170 | 1.21e5 | 8142 | inactive | grh | DRSC07625
1.32e5 | 1.29e5 | 1.01e5 | 45630 | 14085 | inactive | Gtpx | DRSC08221
85765 | 90250 | 82075 | 78275 | 7210 | inactive | CG7218 | DRSC16216
1.69e5 | 1.57e5 | 1.60e5 | 1.52e5 | 13175 | inactive | CG13506 | DRSC04150
1.54e5 | 1.76e5 | 2.03e5 | 2.15e5 | 11915 | inactive | SelG | DRSC19808
1.38e5 | 92045 | 69740 | 71765 | 8910 | inactive | beta-Man | DRSC12208
1.46e5 | 1.24e5 | 1.39e5 | 1.06e5 | 9080 | inactive | beta-Man | DRSC12209
97625 | 1.07e5 | 1.42e5 | 1.27e5 | 13690 | inactive | na | DRSC19639
1.56e5 | 1.56e5 | 1.40e5 | 1.41e5 | 12875 | inactive | CG8191 + CG12379 | DRSC19451
1.14e5 | 1.24e5 | 1.14e5 | 1.42e5 | 8645 | inactive | CG13282 | DRSC02254
1.69e5 | 1.83e5 | 3.84e5 | 2.99e5 | 11285 | inactive | CG1409 | DRSC17910
41630 | 33375 | 38190 | 32725 | 3300 | inactive | Nca | DRSC11233
1.23e5 | 1.29e5 | 2.16e5 | 2.53e5 | 10830 | inactive | CG14439 | DRSC17931
1.18e5 | 1.07e5 | 80175 | 19460 | 9440 | inactive | ImpE2 | DRSC08665
1.75e5 | 1.67e5 | 2.23e5 | 2.29e5 | 9195 | inactive | CG17593 | DRSC00504
1.71e5 | 1.55e5 | 1.51e5 | 1.46e5 | 13315 | inactive | CG42650 | DRSC12462
76370 | 56435 | 62745 | 50310 | 4145 | inactive | Vsx2 | DRSC17397
51550 | 54180 | 86625 | 84330 | 6590 | inactive | Vsx2 | DRSC18087
1.28e5 | 1.23e5 | 2.51e5 | 2.34e5 | 9700 | inactive | Vsx2 | DRSC18088
1.36e5 | 1.34e5 | 2.22e5 | 2.71e5 | 10955 | inactive | Vsx2 | DRSC18089
77900 | 70630 | 78680 | 62425 | 5285 | inactive | CG34323 | DRSC18916

7 entries from above, set out differently.
{"target gene": "na", "dsRNA": "DRSC19639", "induced reporter light, run 1, well a": 97625, "induced reporter light, run 1, well b": 1.07e5, "control promoter light, run 1, well a": 1.42e5, "control promoter light, run 1, well b": 1.27e5, "uninduced reporter light, run 1, well a": 13690, "call": "inactive"}
{"target gene": "CG8191 + CG12379", "dsRNA": "DRSC19451", "induced reporter light, run 1, well a": 1.56e5, "induced reporter light, run 1, well b": 1.56e5, "control promoter light, run 1, well a": 1.40e5, "control promoter light, run 1, well b": 1.41e5, "uninduced reporter light, run 1, well a": 12875, "call": "inactive"}
{"target gene": "CG13282", "dsRNA": "DRSC02254", "induced reporter light, run 1, well a": 1.14e5, "induced reporter light, run 1, well b": 1.24e5, "control promoter light, run 1, well a": 1.14e5, "control promoter light, run 1, well b": 1.42e5, "uninduced reporter light, run 1, well a": 8645, "call": "inactive"}
{"target gene": "CG1409", "dsRNA": "DRSC17910", "induced reporter light, run 1, well a": 1.69e5, "induced reporter light, run 1, well b": 1.83e5, "control promoter light, run 1, well a": 3.84e5, "control promoter light, run 1, well b": 2.99e5, "uninduced reporter light, run 1, well a": 11285, "call": "inactive"}
{"target gene": "Nca", "dsRNA": "DRSC11233", "induced reporter light, run 1, well a": 41630, "induced reporter light, run 1, well b": 33375, "control promoter light, run 1, well a": 38190, "control promoter light, run 1, well b": 32725, "uninduced reporter light, run 1, well a": 3300, "call": "inactive"}
{"target gene": "CG14439", "dsRNA": "DRSC17931", "induced reporter light, run 1, well a": 1.23e5, "induced reporter light, run 1, well b": 1.29e5, "control promoter light, run 1, well a": 2.16e5, "control promoter light, run 1, well b": 2.53e5, "uninduced reporter light, run 1, well a": 10830, "call": "inactive"}
{"target gene": "ImpE2", "dsRNA": "DRSC08665", "induced reporter light, run 1, well a": 1.18e5, "induced reporter light, run 1, well b": 1.07e5, "control promoter light, run 1, well a": 80175, "control promoter light, run 1, well b": 19460, "uninduced reporter light, run 1, well a": 9440, "call": "inactive"}
